From article doi:10.1101/2023.04.25.538167
These are yes or no findings as the source states them, for the method shown. Binding seen in cells or lysates may run through a third protein. Some results given as binding are weak or reduced against the parent protein; the word gives no strength. For some assays here: Sequences can lack the tags named with a protein. Blank lines part the entries; values can stand above or below the binder they belong to.

Assays:
[1] = molecular target: T1, 3xFLAG-HA tagged PATZ1 (mouse) (UniProt Q5NBY9); assay: co-IP
T1 sequence: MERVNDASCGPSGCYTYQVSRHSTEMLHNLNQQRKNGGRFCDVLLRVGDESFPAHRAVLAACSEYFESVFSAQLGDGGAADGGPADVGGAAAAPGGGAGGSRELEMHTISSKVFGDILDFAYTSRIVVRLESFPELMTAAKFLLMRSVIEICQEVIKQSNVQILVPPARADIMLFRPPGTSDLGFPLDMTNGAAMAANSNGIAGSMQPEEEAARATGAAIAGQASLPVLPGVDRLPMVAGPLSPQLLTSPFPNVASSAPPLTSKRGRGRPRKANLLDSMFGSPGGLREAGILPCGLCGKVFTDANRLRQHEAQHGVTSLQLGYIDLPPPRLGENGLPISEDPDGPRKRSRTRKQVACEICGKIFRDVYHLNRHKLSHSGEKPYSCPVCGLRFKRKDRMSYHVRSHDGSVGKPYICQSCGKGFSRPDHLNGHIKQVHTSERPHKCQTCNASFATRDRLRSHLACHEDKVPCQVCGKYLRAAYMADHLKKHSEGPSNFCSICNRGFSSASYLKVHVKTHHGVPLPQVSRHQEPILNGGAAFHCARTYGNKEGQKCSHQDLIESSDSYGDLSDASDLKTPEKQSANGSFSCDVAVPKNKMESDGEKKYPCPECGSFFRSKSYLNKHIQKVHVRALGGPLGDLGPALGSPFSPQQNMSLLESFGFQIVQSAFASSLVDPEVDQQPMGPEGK

CβF-PATZ1 (mouse) = molecular target: T2, CβF-PATZ1 (mouse) (UniProt Q5NBY9); assay: co-IP
T2 sequence: T1 sequence

- binding [1]: binds
B1: RAD21 (protein, UniProt Q61550 1-635)
chain: MFYAHFVLSKRGPLAKIWLAAHWDKKLTKAHVFECNLESSVESIISPKVKMALRTSGHLLLGVVRIYHRKAKYLLADCNEAFIKIKMAFRPGVVDLPEENREAAYNAITLPEEFHDFDQPLPDLDDIDVAQQFSLNQSRVEEITMREEVGNISILQENDFGDFGMDDREIMREGSAFEDDDMLVSTSASNLLLEPEQSTSNLNEKMNHLEYEDQYKDDNFGEGNDGGILDDKLISNNDGGIFDDPPALSEAGVMLPEQPAHDDMDEDDNGSLGGPDSPDSVDPVEPMPTMTDQTTLVPNEEEAFALEPIDITVKETKAKRKRKLIVDSVKELDSKTIRAQLSDYSDIVTTLDLAPPTKKLMMWKETGGVEKLFFLPAQPLWNNRLLKLFTRCLTPLVPEDLRKRRKGGEADNLDEFLKEFENPEVPREEQQPQQQQPQPQRDVIDEPIIEEPSRLQDSVMEASRTTIEESAMPPPPPQGVKRKAGQIDPEPSIPPQQVEQMEIPPVELPPEEPPNICQLIPELELLPEKEKEKEKEKEEEEEEEDEDASGGDQDQEERRWNKRTQQMLHGLQRALAKTGAESISLLELCRNTNRKQAAAKFYSFLVLKKQQAIELTQEEPYSDIIATPGPRFHII

- binding (CβF-PATZ1 (mouse)): binds
B2: RAD21 (protein, UniProt O60216 1-631)
chain: MFYAHFVLSKRGPLAKIWLAAHWDKKLTKAHVFECNLESSVESIISPKVKMALRTSGHLLLGVVRIYHRKAKYLLADCNEAFIKIKMAFRPGVVDLPEENREAAYNAITLPEEFHDFDQPLPDLDDIDVAQQFSLNQSRVEEITMREEVGNISILQENDFGDFGMDDREIMREGSAFEDDDMLVSTTTSNLLLESEQSTSNLNEKINHLEYEDQYKDDNFGEGNDGGILDDKLISNNDGGIFDDPPALSEAGVMLPEQPAHDDMDEDDNVSMGGPDSPDSVDPVEPMPTMTDQTTLVPNEEEAFALEPIDITVKETKAKRKRKLIVDSVKELDSKTIRAQLSDYSDIVTTLDLAPPTKKLMMWKETGGVEKLFSLPAQPLWNNRLLKLFTRCLTPLVPEDLRKRRKGGEADNLDEFLKEFENPEVPREDQQQQHQQRDVIDEPIIEEPSRLQESVMEASRTNIDESAMPPPPPQGVKRKAGQIDPEPVMPPQQVEQMEIPPVELPPEEPPNICQLIPELELLPEKEKEKEKEKEDDEEEEDEDASGGDQDQEERRWNKRTQQMLHGLQRALAKTGAESISLLELCRNTNRKQAAAKFYSFLVLKKQQAIELTQEEPYSDIIATPGPRFHII
